Measurements reported in paper PMC10748377.
No constants are given. Whether binding was seen depends on the method and setting. For part of these data: Binding can be weak; no strength is given.

Key:
[1] = biological target: T1, MtPT1 (Medicago truncatula) (UniProt O22301); assay: two-hybrid; split-ubiquitin membrane yeast two-hybrid (Dualsystems Biotech); MtPT bait in pAMBV4, MtNLA prey in pDL-Nx / pDL-xN; yeast strain DSY1; growth on synthetic medium lacking leucine, tryptophan and histidine
T1 sequence: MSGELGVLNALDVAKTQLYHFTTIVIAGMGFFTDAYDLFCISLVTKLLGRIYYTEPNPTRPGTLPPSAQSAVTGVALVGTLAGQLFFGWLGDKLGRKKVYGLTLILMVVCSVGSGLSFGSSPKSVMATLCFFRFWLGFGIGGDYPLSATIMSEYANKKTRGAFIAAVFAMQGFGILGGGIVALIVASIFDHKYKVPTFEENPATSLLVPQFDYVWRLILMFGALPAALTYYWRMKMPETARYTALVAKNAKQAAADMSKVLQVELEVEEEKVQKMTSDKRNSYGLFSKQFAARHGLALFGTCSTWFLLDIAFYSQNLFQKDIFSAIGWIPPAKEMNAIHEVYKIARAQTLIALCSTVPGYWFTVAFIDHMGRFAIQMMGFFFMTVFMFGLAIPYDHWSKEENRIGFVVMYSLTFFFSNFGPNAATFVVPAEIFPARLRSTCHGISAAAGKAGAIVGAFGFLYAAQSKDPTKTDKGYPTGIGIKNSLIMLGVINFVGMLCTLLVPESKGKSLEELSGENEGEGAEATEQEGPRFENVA

[2] = biological target: T2, MtPT4 (Medicago truncatula) (UniProt Q8GSG4); assay: as above
T2 sequence: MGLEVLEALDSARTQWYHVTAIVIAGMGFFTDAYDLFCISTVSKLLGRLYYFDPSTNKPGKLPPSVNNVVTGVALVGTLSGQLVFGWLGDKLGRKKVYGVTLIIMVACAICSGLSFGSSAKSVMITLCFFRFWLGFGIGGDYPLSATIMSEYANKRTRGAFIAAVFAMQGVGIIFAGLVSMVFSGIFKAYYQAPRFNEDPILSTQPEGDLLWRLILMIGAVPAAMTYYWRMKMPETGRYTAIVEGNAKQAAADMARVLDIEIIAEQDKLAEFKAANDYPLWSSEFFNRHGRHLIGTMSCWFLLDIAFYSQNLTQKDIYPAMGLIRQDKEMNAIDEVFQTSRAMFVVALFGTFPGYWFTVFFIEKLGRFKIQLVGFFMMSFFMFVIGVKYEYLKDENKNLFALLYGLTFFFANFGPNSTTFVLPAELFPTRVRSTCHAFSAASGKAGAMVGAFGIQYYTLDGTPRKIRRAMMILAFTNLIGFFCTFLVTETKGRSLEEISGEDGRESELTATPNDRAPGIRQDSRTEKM

Row | Substance | binding [1] | binding [2]
1 | SPX domain of MtNLA3.1 (1-210 a.a.) (Medicago truncatula) (domain or fragment) | no binding | 
2 | MtNLA3.1 (full-length) (Medicago truncatula) | no binding | no binding
3 | MtNLA1/MtNLA2 (Medicago truncatula) | binds | no binding
4 | MtNLA3.2 (Medicago truncatula) | no binding | no binding
5 | MtNLA3.3 (Medicago truncatula) | binds | no binding
